PubChem BioAssay AID1259254 | NCATS – 2017
This is an unselected part of about 59,000 reagents. Of all reagents, about 1,550 (2.6%) got an active call. 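G2 share is only a proxy for re-replication; each gene was hit by three separate siRNAs, and active genes were retested.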 Unmarked entries are inactive. Reagents against one gene are numbered here. Further read-outs or replicates are left out here. Not stated in the record: the amount of reagent.

Test: 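Finding genes that stop cells copying their DNA twice in one cycle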 (primary screen)
Cells: human HCT116 colorectal cancer cells
Reagent: single siRNA against human genes
Timing: 3 days
Detection: 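Nuclei stained with Hoechst and imaged; cell-cycle phase assigned by DNA content; G2 share scaled per plate, non-targeting siRNA 0%, GMNN siRNA 100%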
Scale: G2 robust z-score: higher = more G2 cells, more excess DNA replication
Hit rule: 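An siRNA counts as active if its G2 robust z-score lies at least 5 MADs above the screen median; here such calls match roughly 38% of GMNN control or more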

{"gene": "ZSWIM6", "reagent": 1, "G2 robust z-score": 0.363}
{"gene": "ZSWIM6", "reagent": 2, "G2 robust z-score": -0.138}
{"gene": "ZSWIM6", "reagent": 3, "G2 robust z-score": -0.807}
{"gene": "SBF2", "reagent": 1, "G2 robust z-score": -0.945}
{"gene": "SBF2", "reagent": 2, "G2 robust z-score": -0.409}
{"gene": "SBF2", "reagent": 3, "G2 robust z-score": -0.796}
{"gene": "HOXB5", "reagent": 1, "G2 robust z-score": 4.49}
{"gene": "HOXB5", "reagent": 2, "G2 robust z-score": -0.835}
{"gene": "HOXB5", "reagent": 3, "G2 robust z-score": 0.576}

Laid out differently: entries from further up
gene | reagent | G2 robust z-score
ZSWIM6 | 2 | -0.138
ZSWIM6 | 3 | -0.807
SBF2 | 1 | -0.945

Additional records follow.
{"gene": "FGD1", "reagent": 1, "G2 robust z-score": -0.926}
{"gene": "FGD1", "reagent": 2, "G2 robust z-score": -0.0913}
{"gene": "FGD1", "reagent": 3, "G2 robust z-score": "6.62 (active)"}
{"gene": "TSSK4", "reagent": 1, "G2 robust z-score": 0.254}
{"gene": "TSSK4", "reagent": 2, "G2 robust z-score": -0.568}
{"gene": "TSSK4", "reagent": 3, "G2 robust z-score": -0.14}
{"gene": "PEAR1", "reagent": 1, "G2 robust z-score": 1.28}
{"gene": "PEAR1", "reagent": 2, "G2 robust z-score": 1.8}
{"gene": "PEAR1", "reagent": 3, "G2 robust z-score": -0.559}
{"gene": "ANKRD46", "reagent": 1, "G2 robust z-score": 1.99}
{"gene": "ANKRD46", "reagent": 2, "G2 robust z-score": -0.14}
{"gene": "ANKRD46", "reagent": 3, "G2 robust z-score": -0.133}
{"gene": "ZNF563", "reagent": 1, "G2 robust z-score": 3.82}
{"gene": "ZNF563", "reagent": 2, "G2 robust z-score": -0.818}
{"gene": "ZNF563", "reagent": 3, "G2 robust z-score": 0.828}
